Experimental data: the supplement of paper PMC11006884
The entries are a selection whose mix differs from that of the whole data set.

Compound: COC(=O)C#Cc1ccccc1 [methyl 3-phenylpropiolate]
Experiment: log2 ratio of iodoacetamide-alkyne labeling of the cysteine site, DMSO over compound (competition); higher = stronger covalent engagement of the cysteine by the compound, active = 1 or more
Details: 500 µM; treatment time 1 h; system: HEK293T cell lysate
Summary of the method: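 Reporter intensities give each cysteine's log2 competition ratio as the mean of control channels over the mean of compound channels. The samples were HEK293T lysate (2 mg/mL) given vehicle or electrophile (500 µM, 1 h, ambient temperature), then iodoacetamide alkyne (1 h), followed by click coupling to sCIP-TMT reagents, pooling, trypsin digestion overnight at 37 °C, streptavidin enrichment, acid elution, Orbitrap Eclipse LC-MS/MS with FAIMS and FragPipe quantification. Duplicate channels and three replicates were run, and cysteines quantified in only one replicate were discarded.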

| Target | log2 ratio of iodoacetamide-alkyne labeling |
| --- | --- |
| TLE1 C89 (UniProt Q04724) | inactive: 0.362 |
| NFX1 C1067 (UniProt Q12986) | inactive: 0.112 |
| PRDX1 C71 (UniProt Q06830) | inactive: 0.39 |
| PPAT C105 (UniProt Q06203) | inactive: 0.528 |
| GPS1 C175 (UniProt Q13098) | inactive: 0.322 |
| TRIM28 C717 (UniProt Q13263) | inactive: -0.00982 |
| MCL1 C16 (UniProt Q07820) | inactive: 0.348 |
| TP53BP1 C1703 (UniProt Q12888) | inactive: 0.474 |
| EEF1A2 C326 (UniProt Q05639) | inactive: 0.25 |
| PRDX1 C173 (UniProt Q06830) | inactive: 0.302 |
| UniProt Q13155_C23 | active: 1.24 |
| LMNB2 C212 (UniProt Q03252) | inactive: 0.214 |
| IFIT5 C137 (UniProt Q13325) | inactive: 0.261 |
| RPL18 C134 (UniProt Q07020) | inactive: 0.213 |
| TARDBP C50 (UniProt Q13148) | inactive: 0.204 |
| RLF C1055 (UniProt Q13129) | inactive: 0.645 |
| TRIM28 C628 (UniProt Q13263) | inactive: 0.111 |
| GTF3C1 C2046 (UniProt Q12789) | inactive: 0.297 |
| CBX3 C69 (UniProt Q13185) | inactive: 0.193 |

Taken from the entries so far for reference:

| Target | log2 ratio of iodoacetamide-alkyne labeling |
| --- | --- |
| PRDX1 C173 (UniProt Q06830) | inactive: 0.302 |
| UniProt Q13155_C23 | active: 1.24 |

(next part)

| Target | log2 ratio of iodoacetamide-alkyne labeling |
| --- | --- |
| NSUN2 C321 (UniProt Q08J23) | inactive: -0.091 |
| NUP160 C1166 (UniProt Q12769) | inactive: 0.463 |
| PPAT C100 (UniProt Q06203) | inactive: 0.528 |
| PDE3B C767 (UniProt Q13370) | inactive: 0.175 |
| NFIA C6 (UniProt Q12857) | inactive: -0.0083 |
| PTPN11 C573 (UniProt Q06124) | inactive: 0.725 |
| ATM C12 (UniProt Q13315) | inactive: 0.177 |
| UniProt Q08170_C61 | inactive: 0.0854 |
| AKAP13 C1276 (UniProt Q12802) | inactive: 0.52 |
| TP53BP1 C896 (UniProt Q12888) | inactive: 0.0531 |
| SNTA1 C239 (UniProt Q13424) | inactive: 0.102 |
| GAB1 C8 (UniProt Q13480) | inactive: 0.326 |
| CAMSAP2 C512 (UniProt Q08AD1) | inactive: 0.622 |
| SCRN1 C324 (UniProt Q12765) | inactive: 0.0183 |
| GTF3C1 C1681 (UniProt Q12789) | inactive: 0.12 |
| TP53BP1 C1375 (UniProt Q12888) | inactive: 0.327 |
| SF3A3 C103 (UniProt Q12874) | inactive: 0.188 |
| GRSF1 C173 (UniProt Q12849) | inactive: 0.484 |
